Measurements published in patent US11185530B2, “Composition for preventing or treating hearing loss, containing atorvastatin as active ingredient” (AJOU UNIVERSITY INDUSTRY-ACADEMIC COOPERATION FOUNDATION, priority 2017, dated 2021).
At least one structure is not confirmed: it was looked up by name or label, or the drawing left a doubt.

Assays:
Type in all cases: cell-based
[1] = system: auditory cell line (HEI-OC1); assay: TUNEL immunostaining quantified by fluorescence microscopy; conditions: HEI-OC1 treated with palmitate vs control group
[2] = system: auditory cell line (HEI-OC1); assay: DCFDA staining of reactive oxygen species; conditions: HEI-OC1 treated with palmitate vs control group
HEI-OC1 cells = assay: Western blotting of cleaved caspase-3, PARP and AKT phosphorylation

With `CCCCCCCCCCCCCCCC(=O)O` [palmitate] the “number of TUNEL-stained cells” value [1] was “increased”, the “level of reactive oxygen species in the cell (DCFDA)” value [2] was “higher” and the “cleaved caspase-3 and PARP proteins” value (HEI-OC1 cells; HEI-OC1 treated with palmitate) was “increased”. The “phosphorylation of AKT protein” value (HEI-OC1 cells; HEI-OC1 treated with palmitate alone) was “decreased”.
